The other results are listed elsewhere or left out.
What was measured:
Assay in all cases: log2 fold change, soluble protein after heating vs DMSO (PISA); higher = thermal stabilisation; K562 cells, 10 uM, 30 min; active = over 0.2 and 3.5 SD of the protein, either way, in both replicates (recomputed)
[1] = compound: COC1=CC=C(C=C1)CN2C=CC3=C2C=C(C=C3)C(=O)NO
Summary of the method: (§1)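 K562 cells at 2×10^6 cells/mL were treated for 30 min with 10 μM compound, and aliquots were heated for 3 min over 48°C-58°C before pooling. Extraction used PBS with 0.5% NP-40 at 4°C, and soluble protein was the supernatant after 21,000xg for 90 min, measured by TMTpro 16plex LC-MS/MS with channel sums equalised. Thermal stability values, relative to control samples and from duplicates, are log2 fold changes.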

Protein sequences, listed by entry. Tags and fused reporters are not part of them. Lines headed by an entry give the natural chain unless they say otherwise; changes in a name come on top.
UniProt Q9ULJ3: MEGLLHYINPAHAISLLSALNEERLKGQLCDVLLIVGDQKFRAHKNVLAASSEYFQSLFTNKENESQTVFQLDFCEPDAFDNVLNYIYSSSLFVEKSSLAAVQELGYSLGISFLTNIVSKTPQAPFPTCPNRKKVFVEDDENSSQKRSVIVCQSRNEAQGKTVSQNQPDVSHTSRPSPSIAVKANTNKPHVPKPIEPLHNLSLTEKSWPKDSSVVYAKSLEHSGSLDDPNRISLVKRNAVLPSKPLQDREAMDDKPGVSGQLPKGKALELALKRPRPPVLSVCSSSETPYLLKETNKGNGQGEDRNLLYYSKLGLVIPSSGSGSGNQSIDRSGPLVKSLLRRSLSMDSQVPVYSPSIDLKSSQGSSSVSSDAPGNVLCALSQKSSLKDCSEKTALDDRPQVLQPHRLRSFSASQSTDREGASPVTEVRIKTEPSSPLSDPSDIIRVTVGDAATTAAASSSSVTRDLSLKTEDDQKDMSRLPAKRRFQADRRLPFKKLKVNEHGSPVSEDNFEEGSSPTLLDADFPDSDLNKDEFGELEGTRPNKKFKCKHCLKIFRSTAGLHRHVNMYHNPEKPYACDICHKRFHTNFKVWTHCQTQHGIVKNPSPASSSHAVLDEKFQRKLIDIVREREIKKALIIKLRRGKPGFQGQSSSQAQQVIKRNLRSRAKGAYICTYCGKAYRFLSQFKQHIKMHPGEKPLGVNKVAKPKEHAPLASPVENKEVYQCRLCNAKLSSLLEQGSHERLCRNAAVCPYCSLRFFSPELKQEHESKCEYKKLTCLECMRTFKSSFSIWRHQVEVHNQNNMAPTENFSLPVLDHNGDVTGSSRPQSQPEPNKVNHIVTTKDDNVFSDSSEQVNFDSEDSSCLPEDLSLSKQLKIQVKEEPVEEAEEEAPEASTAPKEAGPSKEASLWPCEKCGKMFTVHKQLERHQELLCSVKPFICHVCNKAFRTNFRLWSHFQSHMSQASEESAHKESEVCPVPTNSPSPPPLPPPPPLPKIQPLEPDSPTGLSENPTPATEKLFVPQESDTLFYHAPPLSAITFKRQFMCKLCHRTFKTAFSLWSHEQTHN
UniProt Q96EC8: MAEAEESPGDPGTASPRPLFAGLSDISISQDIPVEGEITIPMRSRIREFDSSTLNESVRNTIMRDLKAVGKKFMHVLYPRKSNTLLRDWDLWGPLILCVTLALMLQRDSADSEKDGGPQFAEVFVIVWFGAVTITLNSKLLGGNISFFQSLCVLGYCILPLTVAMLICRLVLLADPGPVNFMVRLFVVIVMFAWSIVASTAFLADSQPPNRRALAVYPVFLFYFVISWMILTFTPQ
UniProt O95159: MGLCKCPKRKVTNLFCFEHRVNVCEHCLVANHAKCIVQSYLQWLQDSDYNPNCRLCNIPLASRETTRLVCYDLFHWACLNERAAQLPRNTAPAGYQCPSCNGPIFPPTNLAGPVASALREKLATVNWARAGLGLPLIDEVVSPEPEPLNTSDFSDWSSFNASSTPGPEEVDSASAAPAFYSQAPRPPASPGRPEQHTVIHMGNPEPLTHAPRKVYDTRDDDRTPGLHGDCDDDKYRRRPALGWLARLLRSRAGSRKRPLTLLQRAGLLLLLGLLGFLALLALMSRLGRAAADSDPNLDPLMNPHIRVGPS
UniProt Q9NQW7: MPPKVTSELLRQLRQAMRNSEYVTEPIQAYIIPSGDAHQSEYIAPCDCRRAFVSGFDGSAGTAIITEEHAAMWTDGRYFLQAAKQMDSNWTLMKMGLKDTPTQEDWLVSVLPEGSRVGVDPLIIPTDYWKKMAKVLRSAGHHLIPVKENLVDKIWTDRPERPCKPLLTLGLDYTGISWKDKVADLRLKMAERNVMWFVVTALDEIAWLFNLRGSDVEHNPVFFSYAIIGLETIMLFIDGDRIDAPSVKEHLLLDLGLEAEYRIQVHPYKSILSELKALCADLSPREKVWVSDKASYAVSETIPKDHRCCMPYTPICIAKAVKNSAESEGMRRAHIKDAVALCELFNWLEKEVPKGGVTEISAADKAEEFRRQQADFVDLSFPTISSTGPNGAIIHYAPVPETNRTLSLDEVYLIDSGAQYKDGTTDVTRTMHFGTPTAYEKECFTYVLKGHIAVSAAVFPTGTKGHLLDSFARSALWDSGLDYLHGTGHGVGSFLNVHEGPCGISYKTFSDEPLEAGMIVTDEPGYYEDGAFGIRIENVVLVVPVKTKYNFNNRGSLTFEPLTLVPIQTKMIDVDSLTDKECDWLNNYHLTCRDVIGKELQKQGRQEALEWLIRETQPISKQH
UniProt O76080: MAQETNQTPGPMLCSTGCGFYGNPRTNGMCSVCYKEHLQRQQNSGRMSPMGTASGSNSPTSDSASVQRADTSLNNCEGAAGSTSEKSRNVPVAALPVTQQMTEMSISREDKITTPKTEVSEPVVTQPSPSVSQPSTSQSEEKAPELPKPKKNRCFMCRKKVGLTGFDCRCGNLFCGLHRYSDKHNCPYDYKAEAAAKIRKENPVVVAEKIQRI
UniProt Q86VM9: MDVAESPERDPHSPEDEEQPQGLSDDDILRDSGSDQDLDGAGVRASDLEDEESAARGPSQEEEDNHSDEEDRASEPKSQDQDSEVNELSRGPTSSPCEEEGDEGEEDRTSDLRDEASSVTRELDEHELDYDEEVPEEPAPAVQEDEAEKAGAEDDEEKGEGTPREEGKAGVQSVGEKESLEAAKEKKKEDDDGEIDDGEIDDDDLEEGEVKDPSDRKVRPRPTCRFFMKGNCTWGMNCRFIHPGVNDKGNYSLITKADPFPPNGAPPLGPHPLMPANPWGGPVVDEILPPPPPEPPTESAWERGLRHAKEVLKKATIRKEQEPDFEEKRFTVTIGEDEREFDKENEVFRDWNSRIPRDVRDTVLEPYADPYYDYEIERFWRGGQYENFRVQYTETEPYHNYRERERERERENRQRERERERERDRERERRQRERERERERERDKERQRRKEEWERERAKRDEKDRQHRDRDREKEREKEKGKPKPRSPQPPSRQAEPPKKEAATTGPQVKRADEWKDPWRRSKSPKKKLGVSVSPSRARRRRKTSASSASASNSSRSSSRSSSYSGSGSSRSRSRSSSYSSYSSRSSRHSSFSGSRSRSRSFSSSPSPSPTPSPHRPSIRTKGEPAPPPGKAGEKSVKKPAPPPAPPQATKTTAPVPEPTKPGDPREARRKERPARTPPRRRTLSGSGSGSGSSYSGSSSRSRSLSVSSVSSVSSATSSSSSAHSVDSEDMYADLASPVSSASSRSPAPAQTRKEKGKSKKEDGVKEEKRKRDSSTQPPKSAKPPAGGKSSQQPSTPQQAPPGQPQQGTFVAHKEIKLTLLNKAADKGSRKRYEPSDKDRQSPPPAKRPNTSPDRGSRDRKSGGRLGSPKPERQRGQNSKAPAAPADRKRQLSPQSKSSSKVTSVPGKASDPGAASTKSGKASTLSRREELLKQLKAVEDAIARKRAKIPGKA
UniProt O43670: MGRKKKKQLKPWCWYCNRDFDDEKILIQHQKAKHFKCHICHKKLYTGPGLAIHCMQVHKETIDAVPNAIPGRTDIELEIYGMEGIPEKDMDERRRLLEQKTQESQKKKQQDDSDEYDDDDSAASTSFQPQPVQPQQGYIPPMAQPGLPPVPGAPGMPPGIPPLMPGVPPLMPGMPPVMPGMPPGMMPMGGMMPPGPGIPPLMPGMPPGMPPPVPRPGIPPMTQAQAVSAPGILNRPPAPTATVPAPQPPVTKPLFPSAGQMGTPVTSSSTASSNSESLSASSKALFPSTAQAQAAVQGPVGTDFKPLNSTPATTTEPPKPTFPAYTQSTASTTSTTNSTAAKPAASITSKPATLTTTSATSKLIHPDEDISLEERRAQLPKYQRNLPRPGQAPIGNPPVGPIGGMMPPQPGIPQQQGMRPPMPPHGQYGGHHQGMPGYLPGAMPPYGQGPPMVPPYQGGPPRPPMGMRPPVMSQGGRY
UniProt Q86WB0: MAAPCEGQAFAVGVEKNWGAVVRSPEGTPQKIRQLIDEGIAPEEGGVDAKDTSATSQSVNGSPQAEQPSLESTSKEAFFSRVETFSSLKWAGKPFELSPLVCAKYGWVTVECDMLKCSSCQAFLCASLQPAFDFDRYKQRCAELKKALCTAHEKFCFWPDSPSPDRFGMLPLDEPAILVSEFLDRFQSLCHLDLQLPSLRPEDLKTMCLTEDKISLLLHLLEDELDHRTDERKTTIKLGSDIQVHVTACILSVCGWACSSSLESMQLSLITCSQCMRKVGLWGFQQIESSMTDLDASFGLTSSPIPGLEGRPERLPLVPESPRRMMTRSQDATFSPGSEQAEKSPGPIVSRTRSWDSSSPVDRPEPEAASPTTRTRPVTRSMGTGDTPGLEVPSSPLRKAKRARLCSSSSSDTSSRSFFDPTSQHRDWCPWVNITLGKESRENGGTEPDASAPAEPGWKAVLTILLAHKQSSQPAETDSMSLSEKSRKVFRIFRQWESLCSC
UniProt Q9BSR8: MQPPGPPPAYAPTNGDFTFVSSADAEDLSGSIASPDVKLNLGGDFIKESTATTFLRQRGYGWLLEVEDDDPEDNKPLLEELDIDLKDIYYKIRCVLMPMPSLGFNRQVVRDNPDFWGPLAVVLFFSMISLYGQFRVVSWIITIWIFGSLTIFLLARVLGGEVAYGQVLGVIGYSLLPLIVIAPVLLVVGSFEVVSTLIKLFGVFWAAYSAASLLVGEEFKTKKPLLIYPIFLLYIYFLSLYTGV
UniProt P67809, whole entry, looked up: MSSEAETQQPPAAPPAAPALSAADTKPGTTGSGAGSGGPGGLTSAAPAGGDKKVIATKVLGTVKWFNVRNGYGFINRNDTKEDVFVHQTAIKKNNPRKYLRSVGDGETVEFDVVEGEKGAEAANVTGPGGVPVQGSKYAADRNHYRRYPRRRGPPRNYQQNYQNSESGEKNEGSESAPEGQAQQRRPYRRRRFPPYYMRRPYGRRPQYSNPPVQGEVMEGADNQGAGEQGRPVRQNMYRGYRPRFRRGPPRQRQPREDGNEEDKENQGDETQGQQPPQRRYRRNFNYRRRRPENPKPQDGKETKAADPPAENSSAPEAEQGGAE
UniProt Q9UIJ5: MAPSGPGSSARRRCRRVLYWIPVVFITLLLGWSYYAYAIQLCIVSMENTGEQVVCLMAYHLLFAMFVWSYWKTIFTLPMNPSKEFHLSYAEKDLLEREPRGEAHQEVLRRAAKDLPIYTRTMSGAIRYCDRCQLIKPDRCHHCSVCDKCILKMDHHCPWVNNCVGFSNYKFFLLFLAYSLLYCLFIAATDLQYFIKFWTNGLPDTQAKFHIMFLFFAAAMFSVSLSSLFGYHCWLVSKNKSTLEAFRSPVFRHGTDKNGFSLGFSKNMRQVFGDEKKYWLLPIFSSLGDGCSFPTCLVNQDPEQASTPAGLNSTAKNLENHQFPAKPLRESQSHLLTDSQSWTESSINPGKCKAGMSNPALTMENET
UniProt P25490, whole entry, looked up: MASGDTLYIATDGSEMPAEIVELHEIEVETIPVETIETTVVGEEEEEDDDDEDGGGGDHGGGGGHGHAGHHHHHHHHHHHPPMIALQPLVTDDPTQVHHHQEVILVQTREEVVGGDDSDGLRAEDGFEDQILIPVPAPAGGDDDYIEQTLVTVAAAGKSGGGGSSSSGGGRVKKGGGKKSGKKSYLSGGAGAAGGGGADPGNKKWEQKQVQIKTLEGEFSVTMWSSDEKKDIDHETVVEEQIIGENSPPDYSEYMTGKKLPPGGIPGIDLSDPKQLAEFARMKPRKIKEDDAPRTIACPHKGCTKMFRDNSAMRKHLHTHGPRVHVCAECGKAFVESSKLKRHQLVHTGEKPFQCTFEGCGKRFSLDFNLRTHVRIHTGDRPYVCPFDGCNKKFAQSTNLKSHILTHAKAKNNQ
UniProt C9J5V9: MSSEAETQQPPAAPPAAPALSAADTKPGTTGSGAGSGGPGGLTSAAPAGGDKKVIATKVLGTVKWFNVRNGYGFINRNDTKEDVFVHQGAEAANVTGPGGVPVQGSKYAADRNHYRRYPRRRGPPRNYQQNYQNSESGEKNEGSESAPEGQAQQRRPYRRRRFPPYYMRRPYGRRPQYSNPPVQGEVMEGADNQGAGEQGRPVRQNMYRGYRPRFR
UniProt P18887, whole entry, looked up: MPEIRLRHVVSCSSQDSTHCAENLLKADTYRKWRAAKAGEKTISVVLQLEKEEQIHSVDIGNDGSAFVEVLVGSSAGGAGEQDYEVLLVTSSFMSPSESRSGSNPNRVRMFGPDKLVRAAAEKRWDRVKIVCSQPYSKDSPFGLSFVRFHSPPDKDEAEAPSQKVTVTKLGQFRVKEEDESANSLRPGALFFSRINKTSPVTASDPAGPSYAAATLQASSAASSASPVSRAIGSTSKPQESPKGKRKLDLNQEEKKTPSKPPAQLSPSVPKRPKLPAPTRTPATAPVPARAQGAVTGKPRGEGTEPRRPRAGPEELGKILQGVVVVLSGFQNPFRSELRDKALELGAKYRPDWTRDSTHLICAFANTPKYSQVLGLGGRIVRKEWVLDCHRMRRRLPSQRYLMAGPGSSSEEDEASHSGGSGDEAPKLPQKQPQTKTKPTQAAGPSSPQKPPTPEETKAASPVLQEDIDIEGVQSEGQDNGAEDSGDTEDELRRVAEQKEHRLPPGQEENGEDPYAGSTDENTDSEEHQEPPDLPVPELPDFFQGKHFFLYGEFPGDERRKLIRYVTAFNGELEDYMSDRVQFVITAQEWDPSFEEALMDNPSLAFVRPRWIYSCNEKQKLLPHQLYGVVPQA

[2] = compound: CON(C)C(=O)N1N=C(c2cc(F)ccc2F)S[C@@]1(CCCN)c1ccccc1 [filanesib]
Summary of the method: as §1

[3] = compound: CO[C@H]1C[C@@H]2CC[C@@H](C)[C@@](O)(O2)C(=O)C(=O)N2CCCC[C@H]2C(=O)O[C@H]([C@H](C)C[C@@H]2CC[C@H](n3cnnn3)[C@H](OC)C2)CC(=O)[C@H](C)/C=C(\C)[C@@H](O)[C@@H](OC)C(=O)[C@H](C)C[C@H](C)/C=C/C=C/C=C/1C [zotarolimus]
Summary of the method: as §1

[4] = compound: COc1cc(C(=O)O)ccc1NC(=O)[C@@H]1N[C@@H](CC(C)(C)C)[C@](C#N)(c2ccc(Cl)cc2F)[C@H]1c1cccc(Cl)c1F [idasanutlin]
Summary of the method: as §1

[5] = compound: COc1cc(Nc2ncc3c(n2)-c2ccc(Cl)cc2C(c2c(F)cccc2OC)=NC3)ccc1C(=O)O [alisertib]
Summary of the method: as §1

[6] = compound: COc1cc2nc(-c3cc(F)ccc3O)nc(N[C@@H]3CNC[C@H]3C(C)(C)O)c2cc1OC
Summary of the method: as §1

[7] = compound: COc1cc2ncnc(Nc3ccc(F)c(Cl)c3)c2cc1OCCCN1CCOCC1 [gefitinib]
Summary of the method: as §1

[8] = compound: COc1cccc2cc(-c3nc([C@H]4CC[C@H](C(=O)O)CC4)n4ncnc(N)c34)[nH]c12
Summary of the method: as §1

[9] = compound: CS(=O)(=O)CCNCc1ccc(-c2ccc3ncnc(Nc4ccc(OCc5cccc(F)c5)c(Cl)c4)c3c2)o1 [lapatinib]
Summary of the method: as §1

[10] = compound: CS(=O)(=O)N1CCN(Cc2cc3nc(-c4cccc5[nH]ncc45)nc(N4CCOCC4)c3s2)CC1 [pictilisib]
Summary of the method: as §1

[11] = compound: CS(=O)(=O)c1ccc(-c2cnc(N)c(C(=O)Nc3ccccc3)n2)cc1
Summary of the method: as §1

[12] = compound: C[C@@H](Oc1cc(-c2cnn(C3CCNCC3)c2)cnc1N)c1c(Cl)ccc(F)c1Cl [crizotinib]
Summary of the method: as §1

[13] = compound: C[C@@H]1COCCN1C2=NC(=NC(=C2)C3(CC3)S(=O)(=O)C)C4=C5C=CNC5=CC=C4
Summary of the method: as §1

[14] = compound: C[C@H](C1=CC=C(C=C1)C(=O)NC2=C3C=CNC3=NC=C2)N
Summary of the method: as §1

[15] = compound: Cc1cc(Nc2cc(CN3CCOCC3)c3nc(C)c(Cc4ccc(Cl)cc4F)n3n2)n[nH]1 [gandotinib]
Summary of the method: as §1

[16] = compound: Cc1cc(SCc2sc(-c3ccc(C(F)(F)F)cc3)nc2C)ccc1OCC(=O)O
Summary of the method: as §1

[17] = compound: Cc1ccc(-n2nc(C(C)(C)C)cc2NC(=O)Nc2ccc(OCCN3CCOCC3)c3ccccc23)cc1 [doramapimod]
Summary of the method: as §1

[18] = compound: Cc1ccc(C(=O)N(CCCN)[C@@H](c2nc3cc(Cl)ccc3c(=O)n2Cc2ccccc2)C(C)C)cc1 [ispinesib]
Summary of the method: as §1

[19] = compound: C[C@H](Nc1ncnc2nc[nH]c12)c1cc2cccc(Cl)c2c(=O)n1-c1ccccc1 [duvelisib]
Summary of the method: as §1

[20] = compound: Cc1cc(Nc2cc(N3CCN(C)CC3)nc(Sc3ccc(NC(=O)C4CC4)cc3)n2)n[nH]1 [tozasertib]
Summary of the method: as §1

Measured: log2 fold change

XPO5 (UniProt Q9HAV4)
inactive: [1] 0.019 | [2] -0.122 | [3] 0.023 | [4] -0.055 | [5] -0.008 | [6] -0.068 | [7] -0.008 | [8] -0.052 | [9] -0.004 | [10] -0.034 | [11] -0.008 | [12] -0.052 | [13] 0.021 | [14] -0.026 | [15] -0.192 | [16] 0.064 | [17] -0.043 | [18] -0.079

ZNF217 (UniProt O75362)
inactive: [1] -0.024 | [2] -0.045 | [3] -0.007 | [4] -0.027 | [5] -0.092 | [6] -0.026 | [7] 0.001 | [8] 0.043 | [9] 0.018 | [10] -0.038 | [11] -0.037 | [12] -0.121 | [13] -0.099 | [14] -0.013 | [15] -0.098 | [16] 0.112 | [17] -0.027 | [18] -0.064

ZBTB21 (UniProt Q9ULJ3)
inactive: [1] 0.026 | [2] 0.075 | [3] 0.004 | [4] 0.026 | [5] -0.154 | [6] 0.022 | [7] -0.125 | [8] 0.129 | [9] 0.032 | [10] -0.035 | [11] 0.048 | [12] -0.1 | [13] -0.101 | [14] 0.125 | [15] 0.074 | [16] 0.043 | [17] 0.069 | [18] -0.09

YIPF6 (UniProt Q96EC8)
inactive: [1] -0.019 | [2] -0.08 | [3] -0.026 | [4] -0.008 | [5] 0.419 | [6] 0.043 | [7] 0.005 | [8] 0.02 | [9] 0.061 | [10] 0.107 | [11] 0.199 | [12] -0.081 | [13] 0.076 | [14] -0.013 | [15] -0.019 | [16] -0.175 | [17] -0.036 | [18] 0.02

ZFPL1 (UniProt O95159)
inactive: [1] 0.074 | [2] -0.001 | [3] 0.006 | [4] -0.026 | [5] 0.014 | [6] 0.099 | [7] 0.065 | [8] -0.039 | [9] -0.035 | [10] 0.173 | [11] -0.045 | [12] 0.107 | [13] -0.056 | [14] -0.006 | [15] 0.011 | [16] 0.025 | [17] -0.098 | [18] 0.236

XPNPEP1 isoform 3 (UniProt Q9NQW7)
inactive: [1] 0.006 | [2] -0.121 | [3] 0.026 | [4] -0.023 | [5] 0.028 | [6] -0.009 | [7] 0.004 | [8] 0.038 | [9] 0.01 | [10] 0.068 | [11] 0.069 | [12] -0.023 | [13] 0.098 | [14] -0.076 | [15] -0.053 | [16] 0.007 | [17] 0.028 | [18] -0.015

Reprinted at random: two records from the list.
ZNF217 (UniProt O75362)
inactive: [1] -0.024 | [2] -0.045 | [3] -0.007 | [4] -0.027 | [5] -0.092 | [6] -0.026 | [7] 0.001 | [8] 0.043 | [9] 0.018 | [10] -0.038 | [11] -0.037 | [12] -0.121 | [13] -0.099 | [14] -0.013 | [15] -0.098 | [16] 0.112 | [17] -0.027 | [18] -0.064

XPO5 (UniProt Q9HAV4)
inactive: [1] 0.019 | [2] -0.122 | [3] 0.023 | [4] -0.055 | [5] -0.008 | [6] -0.068 | [7] -0.008 | [8] -0.052 | [9] -0.004 | [10] -0.034 | [11] -0.008 | [12] -0.052 | [13] 0.021 | [14] -0.026 | [15] -0.192 | [16] 0.064 | [17] -0.043 | [18] -0.079

Later entries

ZFAND5 (UniProt O76080)
inactive: [1] -0.032 | [2] 0.073 | [3] -0.012 | [4] 0.079 | [5] -0.057 | [6] 0 | [7] -0.006 | [8] 0.129 | [9] 0.038 | [10] 0.007 | [11] -0.035 | [12] -0.085 | [13] 0.041 | [14] -0.021 | [15] 0.066 | [16] -0.079 | [17] 0.106 | [18] -0.07

ZC3H18 (UniProt Q86VM9)
inactive: [1] -0.009 | [2] 0.217 | [3] 0.041 | [4] 0.23 | [5] -0.085 | [6] -0.066 | [7] -0.033 | [8] 0.014 | [9] 0.111 | [10] -0.019 | [11] -0.056 | [12] -0.042 | [13] -0.008 | [14] -0.103 | [15] 0.017 | [16] -0.034 | [17] 0.052 | [18] 0.039

ZDHHC20 (UniProt Q5W0Z9)
inactive: [1] -0.034 | [2] 0.008 | [3] -0.15 | [4] -0.014 | [5] -0.052 | [6] -0.086 | [7] -0.067 | [8] 0.11 | [9] 0.063 | [10] 0.066 | [11] 0.067 | [12] 0.017 | [13] 0.131 | [14] 0.051 | [15] 0.018 | [16] -0.249 | [17] -0.025 | [18] -0.076

ZNF207 isoform 4 (UniProt O43670)
inactive: [1] 0.07 | [2] -0.003 | [3] 0.002 | [4] 0.02 | [5] -0.014 | [6] -0.073 | [7] -0.013 | [8] 0.079 | [9] -0.04 | [10] -0.052 | [11] -0.006 | [12] -0.019 | [13] 0.005 | [14] -0.084 | [19] -0.058 | [15] 0.117 | [20] 0.002 | [16] -0.01 | [17] -0.027 | [18] 0.049

ZC3HC1 (UniProt Q86WB0)
inactive: [1] 0.13 | [2] -0.042 | [3] 0.052 | [4] -0.012 | [5] 0.024 | [6] 0.013 | [7] 0.004 | [8] 0.032 | [9] 0 | [10] -0.003 | [11] 0.066 | [12] -0.109 | [13] 0.119 | [14] -0.213 | [15] -0.157 | [16] 0.199 | [17] -0.056 | [18] -0.027

YIPF4 (UniProt Q9BSR8)
inactive: [1] -0.098 | [2] 0.077 | [3] 0.015 | [4] -0.049 | [5] -0.134 | [6] -0.094 | [7] 0.038 | [8] 0.06 | [9] -0.13 | [10] 0.15 | [11] 0.013 | [12] 0.054 | [13] 0.095 | [14] -0.089 | [15] -0.086 | [16] -0.04 | [17] 0.005 | [18] -0.024

YBX1 (UniProt P67809)
inactive: [1] -0.019 | [2] 0.202 | [3] -0.048 | [4] 0.159 | [5] -0.066 | [6] -0.054 | [7] -0.096 | [8] -0.091 | [9] 0.317 | [10] 0.033 | [11] -0.101 | [12] 0 | [13] -0.368 | [14] 0.28 | [15] 0.334 | [16] -0.024 | [17] 0.047 | [18] -0.093

ZDHHC2 (UniProt Q9UIJ5)
inactive: [1] 0.035 | [2] -0.155 | [5] 0.085 | [6] -0.213 | [7] 0.035 | [8] 0.114 | [9] 0.217 | [10] -0.006 | [11] 0.103 | [12] -0.033 | [15] 0.004 | [17] 0.082 | [18] -0.088

YY1 (UniProt P25490)
inactive: [1] 0.069 | [2] -0.006 | [3] -0.01 | [4] 0.077 | [5] -0.062 | [7] -0.076 | [8] 0.009 | [9] -0.023 | [10] -0.021 | [11] -0.061 | [12] -0.021 | [13] 0.02 | [14] -0.071 | [15] -0.012 | [16] 0.002 | [17] -0.037 | [18] -0.147
active: [6] -0.268

YBX1 (UniProt C9J5V9)
inactive: [1] -0.033 | [4] 0.131 | [12] 0.028 | [17] 0.082

XRCC1 (UniProt P18887)
inactive: [1] -0.129 | [2] 0.088 | [3] -0.018 | [4] -0.045 | [10] -0.065 | [11] 0 | [12] 0.093 | [13] 0.087 | [14] 0.049 | [15] -0.019 | [16] -0.132 | [17] -0.101 | [18] 0.062
